Laboratory results taken from US7884077B2, “Methods for the treatment of mood disorders” (The McLean Hospital Corporation, priority 2006, dated 2011).

Tested on: human subjects who have been diagnosed with bipolar disorder and are acutely manic
Experiment: Open-label cumulative-dosing clinical trial of pentazocine in acutely manic subjects
Assay type: in vivo
Experimental: A trial study was conducted to determine the effect of pentazocine on the mood of human subjects who have been diagnosed with bipolar disorder and are acutely manic. Ten subjects (7 male and 3 female) between the ages of 18 and 65 were enrolled in the study. All subjects were admitted to the hospital with a primary diagnosis of bipolar mania by DSMIV criteria. […] Subjects with a current history of substance abuse or a recent history of opiate dependence were excluded. All subjects were deemed competent to give informed consent by non-study physicians. After complete description of the study to the subjects, written informed consent was obtained.
The current study was undertaken in full compliance with federal requirements and with institutional review board approval. The study was designed as an open-label cumulative-dosing trial.
The three-day study consisted of pre-treatment, treatment, and post-treatment days with subjects rated in the morning on all three days and multiple times on the day of treatment. On the treatment day, an initial 50 mg of pentazocine was given by mouth. A second dose was given two hours following the initial dose. […]
Assessment of manic symptoms by YMRS were made daily at the same time in the morning on all three days of the study. […] Data were analyzed using a repeated measures ANOVA (SPSS 14.0).

CC(C)=CCN1CCC2(C)c3cc(O)ccc3CC1C2C (centres unmarked) [pentazocine] showed a PRN medication use (post-treatment day) of 0.3 doses/patient and a PRN medication use (study (treatment) day) of 0.5 doses/patient.
